At least one structure is not confirmed: it was looked up by name or label, or the drawing left a doubt.
Legend:
bitransgenic mice = assay: Rapamycin in doxycycline-induced epithelial Her2-dependent thymus atrophy: thymus weight and cellularity; format: in vivo, mouse; conditions: min n=3, p<0.05
BiTg mice = assay: Rapamycin in doxycycline-induced Her2 activation: flow cytometry of thymocytes; format: in vivo, mouse; conditions: doxycycline plus rapamycin vs doxycycline, lineage negative thymocytes, min n=3

With CO[C@H]1C[C@@H]2CC[C@@H](C)[C@@](O)(O2)C(=O)C(=O)N2CCCC[C@H]2C(=O)O[C@H]([C@H](C)C[C@@H]2CC[C@@H](O)[C@H](OC)C2)CC(=O)[C@H](C)/C=C(\C)[C@@H](O)[C@@H](OC)C(=O)[C@H](C)C[C@H](C)/C=C/C=C/C=C/1C [rapamycin] the overall thymus cellularity (bitransgenic mice; bitransgenic mice, doxycycline plus rapamycin vs doxycycline-only) was “prevented a loss in overall thymus cellularity”, the overall thymus weight (bitransgenic mice; bitransgenic relative to wildtype mice, daily i.p. rapamycin from two days before and throughout three day doxycycline) was “prevented both a loss in overall thymus weight” and the “CD4 plus CD8 double positive (DP) thymocyte abundance” value (BiTg mice) was “reduced in BiTg following doxycycline exposure but not following doxycycline plus rapamycin exposure”.

From patent US20160175308A1, “THERAPEUTIC AGENTS FOR MODULATING THYMIC FUNCTION AND/OR GROWTH AND/OR TREATING VARIOUS DISORDERS” (UCL BUSINESS PLC, priority 2013, published 2016)
